Assay: general procedure: Fmoc solid-phase peptide synthesis; PL-Rink resin (load. 0.55 mmol/g); HOBt/DIC/pyridine; PyBOP for cyclisation
[1] = whole synthesis, HPLC area-%, Aquity UPLC BEH130 C18, UV 214 nm, scale 9.60 mmol
[2] = whole synthesis, scale 9.60 mmol
[3] = whole synthesis, HPLC area-%, scale of the general procedure 2.75 mmol

c[Gly-Tyr-Ile-Gln-Asn-Glu]-trans-4-fluoro-Pro-Leu-Gly-NH2
final HPLC purity (whole synthesis, HPLC area-%, Aquity UPLC BEH130 C18, UV 214 nm, scale 5.50 mmol): 98.8% | final HPLC purity [1]: 98.8% | isolated yield (whole synthesis, scale 5.50 mmol, run 1): 34% | isolated yield (whole synthesis, scale 5.50 mmol, run 2): 25% | isolated yield [2]: 39%

H-GYIQNEPLG-NH2
crude HPLC purity (whole synthesis, HPLC area-%, Aquity UPLC BEH130 C18, UV 214 nm, scale of the general procedure 2.75 mmol, run 1): 79.0% | crude HPLC purity (whole synthesis, HPLC area-%, Aquity UPLC BEH130 C18, UV 214 nm, scale of the general procedure 2.75 mmol, run 2): 83.3% | crude HPLC purity (whole synthesis, HPLC area-%, Aquity UPLC BEH130 C18, UV 214 nm, scale of the general procedure 2.75 mmol, run 3): 78.5% | crude HPLC purity (whole synthesis, HPLC area-%, Aquity UPLC BEH130 C18, UV 214 nm, scale of the general procedure 2.75 mmol, run 4): 82.7% | crude HPLC purity [3]: 87.3% | crude yield (whole synthesis, scale of the general procedure 2.75 mmol, run 1): 90% | crude yield (whole synthesis, scale of the general procedure 2.75 mmol, run 2): 96%

c[Gly-Tyr-Leu-Gln-Asn-Glu]-Pro-Leu-Gly-NH2
crude HPLC purity (cyclisation step, HPLC area-%): 71.4% | final HPLC purity [1]: 98.2% | isolated yield [2]: 40% | crude yield (whole synthesis, scale of the general procedure 2.75 mmol): 60%

H-GYIQNEGLG-NH2
crude HPLC purity [3]: 67.4%

c[Gly-Tyr-Ile-Gln-Asn-Glu]-Gly-Leu-Gly-NH2
crude HPLC purity (cyclisation step, HPLC area-%): 56.6% | crude HPLC purity [3]: 15.9% | final HPLC purity (whole synthesis, HPLC area-%, scale of the general procedure 2.75 mmol, run 1): 99.2% | final HPLC purity (whole synthesis, HPLC area-%, scale of the general procedure 2.75 mmol, run 2): 99.7% | crude HPLC purity (whole synthesis, UV 214 nm, scale of the general procedure 2.75 mmol): 62.7% | crude yield (whole synthesis, total, scale of the general procedure 2.75 mmol, run 1): 9% | crude yield (whole synthesis, total, scale of the general procedure 2.75 mmol, run 2): 38% | crude yield (whole synthesis, total, scale of the general procedure 2.75 mmol, run 3): 31% | crude mass (whole synthesis, run 1): 2.01 g | isolated mass (whole synthesis, run 1): 0.708 g | crude mass (whole synthesis, run 2): 2.39 g | isolated mass (whole synthesis, run 2): 0.444 g

Source: US20170174725 (published 2017)
